Assay results reported in patent publication US5100663A, “Tyr-Gly compositions useful in increasing immune response” (priority 1990, dated 1992).
At least one peptide structure holds a part that was inferred or is arguable (an end, a ring closure or a residue).

System: cell-mediated immune system response
Assay: Amplifier (immunological) activity of HPLC fractions and their constituents
Design: species or system human
Settings: moieties in effluents of Example 5 process
Description: Absorbance was monitored at […], 0.1 Absorbance Units=Full Scale. […] The first peak was lower than the second and third, in terms of absorbance units, and is believed to be an artifact of the system associated with the ethanol solvent or due to elution of salts. The second and third peaks varied in relative height from preparation to preparation.
Other moieties found present in effluents of this process were Gly-Gly, Ser-Phe, and Ala, along with possibly other amino acid residues as well.

N[C@@H](CO)C(=O)N[C@@H](Cc1ccccc1)C(=O)O [Ser-Phe]
immunological activity as assayed by DH test: None of these other moieties appeared to possess immunological activity
